Laboratory results as given in the supplement of paper PMC12823440, “Inhibitors supercharge kinase turnover through native proteolytic circuits” (Nature, 2025).
Structures can show the parent of a compound that is named as a salt. This is one part of the list. Hit calls seldom repeat between salt and free forms of one compound.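 Kinases, fused to nanoluciferase, were expressed in K562 cells; luminescence was measured every 4 h from 2 to 18 h as percent of control (DMSO = 100%, positive control = 0%). A time point is decreased if signal falls significantly (2 sigma). Hits were called by the authors by a rule that is not shown; the count of time points alone does not decide it.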

Protein sequences, listed by entry. Tags and fused reporters are not part of them. Lines headed by an entry give the natural chain unless they say otherwise; changes in a name come on top.
UniProt P00519, whole entry: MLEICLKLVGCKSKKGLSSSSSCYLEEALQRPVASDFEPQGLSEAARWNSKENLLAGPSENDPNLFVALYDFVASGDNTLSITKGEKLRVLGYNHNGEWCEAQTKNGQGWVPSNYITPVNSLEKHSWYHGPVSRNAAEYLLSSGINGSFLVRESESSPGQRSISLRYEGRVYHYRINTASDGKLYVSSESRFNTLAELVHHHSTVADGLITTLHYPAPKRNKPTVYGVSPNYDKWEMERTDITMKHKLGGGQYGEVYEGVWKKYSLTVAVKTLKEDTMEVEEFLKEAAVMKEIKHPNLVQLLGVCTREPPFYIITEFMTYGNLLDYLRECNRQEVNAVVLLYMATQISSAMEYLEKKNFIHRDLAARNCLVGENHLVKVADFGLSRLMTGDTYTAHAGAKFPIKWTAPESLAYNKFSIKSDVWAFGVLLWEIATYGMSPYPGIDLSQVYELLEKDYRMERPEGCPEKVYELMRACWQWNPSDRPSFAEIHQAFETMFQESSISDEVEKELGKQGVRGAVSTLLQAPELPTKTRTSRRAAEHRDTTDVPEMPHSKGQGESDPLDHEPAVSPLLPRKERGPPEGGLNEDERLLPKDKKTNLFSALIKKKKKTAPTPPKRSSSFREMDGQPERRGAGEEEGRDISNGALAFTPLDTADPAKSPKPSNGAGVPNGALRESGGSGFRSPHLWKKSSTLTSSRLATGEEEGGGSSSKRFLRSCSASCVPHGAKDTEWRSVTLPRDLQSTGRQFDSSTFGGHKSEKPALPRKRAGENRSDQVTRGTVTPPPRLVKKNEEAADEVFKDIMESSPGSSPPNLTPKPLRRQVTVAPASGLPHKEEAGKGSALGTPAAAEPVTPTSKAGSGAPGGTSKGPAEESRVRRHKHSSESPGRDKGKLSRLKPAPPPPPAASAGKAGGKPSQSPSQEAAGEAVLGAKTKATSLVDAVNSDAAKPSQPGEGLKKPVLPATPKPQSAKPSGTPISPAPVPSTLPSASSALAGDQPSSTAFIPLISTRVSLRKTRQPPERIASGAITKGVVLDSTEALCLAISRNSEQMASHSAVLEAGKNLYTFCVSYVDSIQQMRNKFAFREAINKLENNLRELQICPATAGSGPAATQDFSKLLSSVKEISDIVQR
UniProt Q96GD4, whole entry: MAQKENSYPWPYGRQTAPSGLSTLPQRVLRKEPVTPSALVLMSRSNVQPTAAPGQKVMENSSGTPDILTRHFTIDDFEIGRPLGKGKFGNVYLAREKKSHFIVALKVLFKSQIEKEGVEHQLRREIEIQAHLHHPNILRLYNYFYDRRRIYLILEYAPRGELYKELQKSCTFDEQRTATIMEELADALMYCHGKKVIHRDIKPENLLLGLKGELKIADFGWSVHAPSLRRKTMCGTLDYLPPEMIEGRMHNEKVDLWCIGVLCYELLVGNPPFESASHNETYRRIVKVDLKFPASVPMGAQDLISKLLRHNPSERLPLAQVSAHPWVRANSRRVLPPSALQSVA
UniProt Q9UQB9: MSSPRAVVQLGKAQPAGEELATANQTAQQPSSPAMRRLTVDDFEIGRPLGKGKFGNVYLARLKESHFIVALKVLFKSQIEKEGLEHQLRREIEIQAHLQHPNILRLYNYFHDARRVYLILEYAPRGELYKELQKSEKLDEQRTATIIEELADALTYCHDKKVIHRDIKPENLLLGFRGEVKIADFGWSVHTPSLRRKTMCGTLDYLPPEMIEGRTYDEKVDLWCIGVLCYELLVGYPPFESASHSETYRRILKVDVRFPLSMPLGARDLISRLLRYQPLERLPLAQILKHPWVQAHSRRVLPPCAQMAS
UniProt P51451: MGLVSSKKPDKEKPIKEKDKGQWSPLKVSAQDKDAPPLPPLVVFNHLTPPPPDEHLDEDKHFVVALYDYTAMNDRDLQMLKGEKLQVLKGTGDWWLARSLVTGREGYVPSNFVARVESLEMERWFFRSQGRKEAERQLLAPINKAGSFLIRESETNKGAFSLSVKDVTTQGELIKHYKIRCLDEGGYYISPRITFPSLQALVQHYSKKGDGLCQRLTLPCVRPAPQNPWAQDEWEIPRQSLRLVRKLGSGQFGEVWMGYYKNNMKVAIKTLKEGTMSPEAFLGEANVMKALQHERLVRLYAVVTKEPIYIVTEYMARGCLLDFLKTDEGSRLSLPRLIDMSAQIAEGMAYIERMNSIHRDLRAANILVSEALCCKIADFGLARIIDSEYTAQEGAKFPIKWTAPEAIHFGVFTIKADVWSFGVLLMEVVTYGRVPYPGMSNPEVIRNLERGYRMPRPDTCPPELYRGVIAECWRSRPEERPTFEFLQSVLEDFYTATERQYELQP
UniProt P51813: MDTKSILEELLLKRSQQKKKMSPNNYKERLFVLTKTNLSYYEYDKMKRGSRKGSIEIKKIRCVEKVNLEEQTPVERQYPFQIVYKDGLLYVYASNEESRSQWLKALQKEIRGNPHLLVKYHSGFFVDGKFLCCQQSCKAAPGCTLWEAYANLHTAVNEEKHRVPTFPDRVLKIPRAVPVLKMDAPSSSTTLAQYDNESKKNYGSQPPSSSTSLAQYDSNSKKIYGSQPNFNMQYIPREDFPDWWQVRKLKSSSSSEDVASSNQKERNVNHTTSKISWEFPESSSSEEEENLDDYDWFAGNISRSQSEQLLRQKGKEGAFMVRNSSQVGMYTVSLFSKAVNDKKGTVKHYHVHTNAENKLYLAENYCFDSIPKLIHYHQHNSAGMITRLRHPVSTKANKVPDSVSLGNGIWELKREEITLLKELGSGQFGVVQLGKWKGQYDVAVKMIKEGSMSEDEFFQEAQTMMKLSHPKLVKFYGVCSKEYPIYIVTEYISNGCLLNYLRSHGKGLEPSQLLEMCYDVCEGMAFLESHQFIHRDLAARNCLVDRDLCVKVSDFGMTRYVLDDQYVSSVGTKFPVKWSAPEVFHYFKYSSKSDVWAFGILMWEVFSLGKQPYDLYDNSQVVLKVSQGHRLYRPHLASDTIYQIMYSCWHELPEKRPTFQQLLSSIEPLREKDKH
UniProt P15056, whole entry, looked up: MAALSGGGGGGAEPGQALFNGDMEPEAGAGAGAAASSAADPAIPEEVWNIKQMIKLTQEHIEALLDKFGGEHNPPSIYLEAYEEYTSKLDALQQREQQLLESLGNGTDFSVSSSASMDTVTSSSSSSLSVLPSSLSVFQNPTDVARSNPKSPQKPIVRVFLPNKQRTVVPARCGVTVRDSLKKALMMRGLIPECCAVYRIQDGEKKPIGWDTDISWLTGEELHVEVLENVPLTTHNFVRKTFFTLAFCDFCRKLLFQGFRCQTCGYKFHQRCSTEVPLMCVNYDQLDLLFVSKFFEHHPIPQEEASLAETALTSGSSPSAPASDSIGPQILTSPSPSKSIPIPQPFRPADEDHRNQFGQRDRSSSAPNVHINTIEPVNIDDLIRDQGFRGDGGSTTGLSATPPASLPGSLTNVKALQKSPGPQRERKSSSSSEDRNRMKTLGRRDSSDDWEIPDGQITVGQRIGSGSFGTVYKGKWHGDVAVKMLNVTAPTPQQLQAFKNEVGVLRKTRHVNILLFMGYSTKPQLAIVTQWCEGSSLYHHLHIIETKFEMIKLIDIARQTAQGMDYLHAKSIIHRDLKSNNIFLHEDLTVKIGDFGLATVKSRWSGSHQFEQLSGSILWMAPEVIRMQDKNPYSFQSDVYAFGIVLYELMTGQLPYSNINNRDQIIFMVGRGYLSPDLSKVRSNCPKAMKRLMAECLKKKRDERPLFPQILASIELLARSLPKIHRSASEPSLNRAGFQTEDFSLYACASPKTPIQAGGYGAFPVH
UniProt Q06187: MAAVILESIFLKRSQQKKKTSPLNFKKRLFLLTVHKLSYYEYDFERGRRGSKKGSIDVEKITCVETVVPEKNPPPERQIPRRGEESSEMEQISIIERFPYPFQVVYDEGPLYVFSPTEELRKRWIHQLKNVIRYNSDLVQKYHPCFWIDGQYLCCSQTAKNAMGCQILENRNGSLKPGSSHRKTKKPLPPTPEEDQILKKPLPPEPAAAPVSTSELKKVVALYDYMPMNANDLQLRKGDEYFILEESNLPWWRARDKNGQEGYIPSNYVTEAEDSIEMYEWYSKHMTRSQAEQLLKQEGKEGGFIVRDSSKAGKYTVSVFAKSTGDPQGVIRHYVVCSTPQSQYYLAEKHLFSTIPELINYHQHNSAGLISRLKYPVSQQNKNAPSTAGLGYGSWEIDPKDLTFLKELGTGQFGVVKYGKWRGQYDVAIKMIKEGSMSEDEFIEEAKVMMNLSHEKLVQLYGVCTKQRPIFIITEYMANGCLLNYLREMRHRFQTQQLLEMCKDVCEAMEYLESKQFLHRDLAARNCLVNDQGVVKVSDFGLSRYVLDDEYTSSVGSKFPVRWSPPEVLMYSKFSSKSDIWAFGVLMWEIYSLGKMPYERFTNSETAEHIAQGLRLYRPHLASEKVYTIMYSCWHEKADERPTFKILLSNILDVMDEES
UniProt Q9UQM7, whole entry: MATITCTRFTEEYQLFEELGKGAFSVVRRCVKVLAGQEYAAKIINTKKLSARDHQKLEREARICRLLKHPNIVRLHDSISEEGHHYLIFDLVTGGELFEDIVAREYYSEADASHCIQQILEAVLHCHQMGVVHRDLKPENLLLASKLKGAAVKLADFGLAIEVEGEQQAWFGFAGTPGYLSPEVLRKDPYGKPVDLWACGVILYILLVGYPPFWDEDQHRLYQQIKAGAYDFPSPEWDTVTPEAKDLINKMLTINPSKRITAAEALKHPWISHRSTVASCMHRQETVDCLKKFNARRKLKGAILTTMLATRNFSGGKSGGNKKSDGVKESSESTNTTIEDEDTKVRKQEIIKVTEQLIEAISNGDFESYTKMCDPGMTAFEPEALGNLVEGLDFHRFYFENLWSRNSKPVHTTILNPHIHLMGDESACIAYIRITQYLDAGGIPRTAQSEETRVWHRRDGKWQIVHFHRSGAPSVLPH
UniProt Q13555: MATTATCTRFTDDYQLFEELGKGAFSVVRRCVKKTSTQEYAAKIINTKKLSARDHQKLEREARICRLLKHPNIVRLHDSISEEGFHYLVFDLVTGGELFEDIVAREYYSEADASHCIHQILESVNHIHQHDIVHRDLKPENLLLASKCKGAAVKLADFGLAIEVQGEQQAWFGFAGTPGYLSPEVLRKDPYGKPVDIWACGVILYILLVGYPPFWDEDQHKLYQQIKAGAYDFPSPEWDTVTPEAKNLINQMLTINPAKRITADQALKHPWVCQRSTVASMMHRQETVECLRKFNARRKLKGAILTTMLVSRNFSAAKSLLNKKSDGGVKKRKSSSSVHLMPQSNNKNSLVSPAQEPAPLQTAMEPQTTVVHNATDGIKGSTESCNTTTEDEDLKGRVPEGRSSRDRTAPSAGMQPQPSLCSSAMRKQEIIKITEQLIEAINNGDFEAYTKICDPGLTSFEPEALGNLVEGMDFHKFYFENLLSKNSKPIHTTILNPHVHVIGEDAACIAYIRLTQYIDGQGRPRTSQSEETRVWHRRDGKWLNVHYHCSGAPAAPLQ
UniProt Q00526: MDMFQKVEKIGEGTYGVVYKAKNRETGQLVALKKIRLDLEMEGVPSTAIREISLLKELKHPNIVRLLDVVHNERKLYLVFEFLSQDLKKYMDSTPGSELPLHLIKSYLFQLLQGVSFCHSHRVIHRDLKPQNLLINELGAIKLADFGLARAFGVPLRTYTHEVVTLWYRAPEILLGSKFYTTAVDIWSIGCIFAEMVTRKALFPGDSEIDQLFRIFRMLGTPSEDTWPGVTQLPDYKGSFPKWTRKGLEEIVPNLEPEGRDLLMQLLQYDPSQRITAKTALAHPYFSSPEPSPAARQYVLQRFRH
UniProt Q00535, whole entry, looked up: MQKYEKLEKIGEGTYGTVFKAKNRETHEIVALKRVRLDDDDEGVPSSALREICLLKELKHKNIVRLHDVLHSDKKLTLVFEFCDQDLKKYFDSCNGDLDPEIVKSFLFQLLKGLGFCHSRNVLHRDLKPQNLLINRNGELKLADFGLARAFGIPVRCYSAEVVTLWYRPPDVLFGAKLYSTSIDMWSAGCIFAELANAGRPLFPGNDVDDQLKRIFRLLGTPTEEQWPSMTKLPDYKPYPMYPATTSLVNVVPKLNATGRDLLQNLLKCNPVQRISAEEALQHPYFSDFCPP
UniProt Q00534, whole entry: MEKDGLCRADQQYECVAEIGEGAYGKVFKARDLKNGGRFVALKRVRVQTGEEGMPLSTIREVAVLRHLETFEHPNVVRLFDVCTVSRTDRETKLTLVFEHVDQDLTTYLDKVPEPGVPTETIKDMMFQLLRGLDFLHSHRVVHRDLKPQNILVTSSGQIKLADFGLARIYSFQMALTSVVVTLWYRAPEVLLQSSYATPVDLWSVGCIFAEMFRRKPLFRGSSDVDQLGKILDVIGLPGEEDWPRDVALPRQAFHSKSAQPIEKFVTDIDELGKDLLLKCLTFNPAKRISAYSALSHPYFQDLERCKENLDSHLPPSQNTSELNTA

What was measured:
Test in all cases: kinase-Nluc reporter destabilization hit call (1 = scored as downregulated) (binary); higher = compound decreases kinase abundance
Settings in all cases: K562; 2-18 h
[1] = target: ABL1 (UniProt P00519)
[2] = target: AKT1 (UniProt P31749)
[3] = target: ALK (UniProt Q9UM73)
[4] = target: ARAF (UniProt P10398)
[5] = target: AURKA (UniProt O14965)
[6] = target: AURKB (UniProt Q96GD4)
[7] = target: AURKC (UniProt Q9UQB9)
[8] = target: BLK (UniProt P51451)
[9] = target: BMX (UniProt P51813)
[10] = target: BRAF (UniProt P15056)
[11] = test system: BRAF_V600E
[12] = target: BTK (UniProt Q06187)
[13] = target: CAMK2A (UniProt Q9UQM7)
[14] = target: CAMK2G (UniProt Q13555)
[15] = target: CDK10 (UniProt Q15131)
[16] = target: CDK2 (UniProt P24941)
[17] = target: CDK3 (UniProt Q00526)
[18] = target: CDK4 (UniProt P11802)
[19] = target: CDK5 (UniProt Q00535)
[20] = target: CDK6 (UniProt Q00534)

Measured: kinase-Nluc reporter destabilization hit call

CCOc1nc(Nc2ccc(C(=O)N3CCOCC3)cc2OC)nc2[nH]ccc12 [LRRK2 inhibitor 1] (2.5 µM)
inactive: [1] 0 | [2] 0 | [3] 0 | [4] 0 | [5] 0 | [6] 0 | [7] 0 | [8] 0 | [9] 0 | [10] 0 | [11] 0 | [12] 0 | [13] 0 | [14] 0 | [15] 0 | [16] 0 | [17] 0 | [18] 0 | [19] 0 | [20] 0

COc1cc(N2CCC(N3CCN(C)CC3)CC2)ccc1Nc1nc2c(c(Nc3ccccc3S(=O)(=O)NC(C)C)n1)CCN2 [Conteltinib] (10 µM)
inactive: [1] 0 | [2] 0 | [3] 0 | [4] 0 | [5] 0 | [6] 0 | [7] 0 | [8] 0 | [9] 0 | [10] 0 | [11] 0 | [12] 0 | [13] 0 | [14] 0 | [15] 0 | [16] 0 | [17] 0 | [18] 0 | [19] 0 | [20] 0

CSc1ccc(CN2CCCC(Nc3ccc4[nH]ncc4c3)C2)cc1 (stereo not given) [Rho-Kinase-IN-1] (10 µM)
inactive: [1] 0 | [2] 0 | [3] 0 | [4] 0 | [5] 0 | [6] 0 | [7] 0 | [8] 0 | [9] 0 | [10] 0 | [11] 0 | [12] 0 | [13] 0 | [14] 0 | [15] 0 | [16] 0 | [17] 0 | [18] 0 | [19] 0 | [20] 0

CC(CCc1ccccn1)(CCc1ccccn1)C(=O)c1ccccc1 (10 µM)
inactive: [1] 0 | [2] 0 | [3] 0 | [4] 0 | [5] 0 | [6] 0 | [7] 0 | [8] 0 | [9] 0 | [10] 0 | [11] 0 | [12] 0 | [13] 0 | [14] 0 | [15] 0 | [16] 0 | [17] 0 | [18] 0 | [19] 0 | [20] 0

CC(=O)NCCc1c[nH]c2ccc(O)cc12 [N-Acetyl-5-hydroxytryptamine] (10 µM)
inactive: [1] 0 | [2] 0 | [3] 0 | [4] 0 | [5] 0 | [6] 0 | [7] 0 | [8] 0 | [9] 0 | [10] 0 | [11] 0 | [12] 0 | [13] 0 | [14] 0 | [15] 0 | [16] 0 | [17] 0 | [18] 0 | [19] 0 | [20] 0

CC1(COc2ccc3c(c2)ncn3-c2ccc3cccc(N4CCC(N)CC4)c3n2)COC1 [Crenolanib] (2.5 µM)
inactive: [1] 0 | [2] 0 | [3] 0 | [4] 0 | [5] 0 | [6] 0 | [7] 0 | [8] 0 | [9] 0 | [10] 0 | [11] 0 | [12] 0 | [13] 0 | [14] 0 | [15] 0 | [16] 0 | [17] 0 | [18] 0 | [19] 0 | [20] 0

Looked up by compound from the entries so far, 2 records:
CC(=O)NCCc1c[nH]c2ccc(O)cc12 [N-Acetyl-5-hydroxytryptamine] (10 µM)
inactive: [1] 0 | [2] 0 | [3] 0 | [4] 0 | [5] 0 | [6] 0 | [7] 0 | [8] 0 | [9] 0 | [10] 0 | [11] 0 | [12] 0 | [13] 0 | [14] 0 | [15] 0 | [16] 0 | [17] 0 | [18] 0 | [19] 0 | [20] 0

CC1(COc2ccc3c(c2)ncn3-c2ccc3cccc(N4CCC(N)CC4)c3n2)COC1 [Crenolanib] (2.5 µM)
inactive: [1] 0 | [2] 0 | [3] 0 | [4] 0 | [5] 0 | [6] 0 | [7] 0 | [8] 0 | [9] 0 | [10] 0 | [11] 0 | [12] 0 | [13] 0 | [14] 0 | [15] 0 | [16] 0 | [17] 0 | [18] 0 | [19] 0 | [20] 0

Next part.

Nc1cc(C(F)(F)F)c(-c2nc(N3CCOCC3)nc(N3CCOCC3)n2)cn1 [Bimiralisib] (10 µM)
inactive: [1] 0 | [2] 0 | [3] 0 | [4] 0 | [5] 0 | [6] 0 | [7] 0 | [8] 0 | [9] 0 | [10] 0 | [11] 0 | [12] 0 | [13] 0 | [14] 0 | [15] 0 | [16] 0 | [17] 0 | [18] 0 | [19] 0 | [20] 0

COc1cc2ncnc(Nc3ccc(NC(=O)c4ccccc4)cc3)c2cc1OC [Aurora kinase inhibitor-2] (2.5 µM)
inactive: [1] 0 | [2] 0 | [3] 0 | [4] 0 | [5] 0 | [6] 0 | [7] 0 | [8] 0 | [9] 0 | [10] 0 | [11] 0 | [12] 0 | [13] 0 | [14] 0 | [15] 0 | [16] 0 | [17] 0 | [18] 0 | [19] 0 | [20] 0

CN1C(=O)NC(Cc2c[nH]c3c(Cl)cccc23)C1=O (racemic) [Necrostatin 2 (racemate)] (10 µM)
inactive: [1] 0 | [2] 0 | [3] 0 | [4] 0 | [5] 0 | [6] 0 | [7] 0 | [8] 0 | [9] 0 | [10] 0 | [11] 0 | [12] 0 | [13] 0 | [14] 0 | [15] 0 | [16] 0 | [17] 0 | [18] 0 | [19] 0 | [20] 0

COc1cc(C(C)=O)cc(OC)c1O [Acetosyringone] (10 µM)
inactive: [1] 0 | [2] 0 | [3] 0 | [4] 0 | [5] 0 | [6] 0 | [7] 0 | [8] 0 | [9] 0 | [10] 0 | [11] 0 | [12] 0 | [13] 0 | [14] 0 | [15] 0 | [16] 0 | [17] 0 | [18] 0 | [19] 0 | [20] 0

O=C(Nc1ccc(Cl)cc1)C1CCCN(C(=O)c2cccc(-c3ccco3)c2)C1 (stereo not given) (2.5 µM)
inactive: [1] 0 | [2] 0 | [3] 0 | [4] 0 | [5] 0 | [6] 0 | [7] 0 | [8] 0 | [9] 0 | [10] 0 | [11] 0 | [12] 0 | [13] 0 | [14] 0 | [15] 0 | [16] 0 | [17] 0 | [18] 0 | [19] 0 | [20] 0

O=S(=O)(c1cccc2cnccc12)N1CCNCC1 (10 µM)
inactive: [1] 0 | [2] 0 | [3] 0 | [4] 0 | [5] 0 | [6] 0 | [7] 0 | [8] 0 | [9] 0 | [10] 0 | [11] 0 | [12] 0 | [13] 0 | [14] 0 | [15] 0 | [16] 0 | [17] 0 | [18] 0 | [19] 0 | [20] 0

O=c1[nH]ccc2cc(OC3CCNCC3)ccc12 (10 µM)
inactive: [1] 0 | [2] 0 | [3] 0 | [4] 0 | [5] 0 | [6] 0 | [7] 0 | [8] 0 | [9] 0 | [10] 0 | [11] 0 | [12] 0 | [13] 0 | [14] 0 | [15] 0 | [16] 0 | [17] 0 | [18] 0 | [19] 0 | [20] 0

CC(=O)Nc1nc(C)c(-c2nc(N3CCCC(O)C3)no2)s1 (stereo not given) (10 µM)
inactive: [1] 0 | [2] 0 | [3] 0 | [4] 0 | [5] 0 | [6] 0 | [7] 0 | [8] 0 | [9] 0 | [10] 0 | [11] 0 | [12] 0 | [13] 0 | [14] 0 | [15] 0 | [16] 0 | [17] 0 | [18] 0 | [19] 0 | [20] 0

CN1CC[C@H](c2c(O)cc(O)c3c(=O)cc(-c4ccc(C(F)(F)F)cc4Cl)oc23)[C@H]1CO [(2S,3R)-Voruciclib (hydrochloride)] (2.5 µM)
inactive: [1] 0 | [2] 0 | [3] 0 | [4] 0 | [5] 0 | [6] 0 | [7] 0 | [8] 0 | [9] 0 | [10] 0 | [11] 0 | [12] 0 | [13] 0 | [14] 0 | [15] 0 | [16] 0 | [17] 0 | [18] 0 | [19] 0 | [20] 0

COc1cc(C(=O)N2CCC(N3CCN(C)CC3)CC2)ccc1Nc1ncc2c(n1)N(C)c1ccccc1C(=O)N2C (10 µM)
inactive: [1] 0 | [2] 0 | [3] 0 | [4] 0 | [5] 0 | [6] 0 | [7] 0 | [8] 0 | [9] 0 | [10] 0 | [11] 0 | [12] 0 | [13] 0 | [14] 0 | [15] 0 | [16] 0 | [17] 0 | [18] 0 | [19] 0 | [20] 0

Cn1cc(-c2ccc(F)c(C(F)(F)F)c2)nc1C1CCN(c2ncnc3[nH]ncc23)CC1 (10 µM)
inactive: [1] 0 | [2] 0 | [3] 0 | [4] 0 | [5] 0 | [6] 0 | [7] 0 | [8] 0 | [9] 0 | [10] 0 | [11] 0 | [12] 0 | [13] 0 | [14] 0 | [15] 0 | [16] 0 | [17] 0 | [18] 0 | [19] 0 | [20] 0

CCCNC(=O)c1cn2ncnc(Nc3cc(C(=O)NC4CC4)ccc3C)c2c1C (10 µM)
inactive: [1] 0 | [2] 0 | [3] 0 | [4] 0 | [5] 0 | [6] 0 | [7] 0 | [8] 0 | [9] 0 | [10] 0 | [11] 0 | [12] 0 | [13] 0 | [14] 0 | [15] 0 | [16] 0 | [17] 0 | [18] 0 | [19] 0 | [20] 0
